Results on two molecules are retold here after patent US20060058263A1, “Heat pasturized liquids containing glucosamine” (priority 2002, published 2006).

A short description of this data set: Difference From Control sensory panel, Libby's White Grape Juicy Juice with GLCN heated to simulate pasteurization. To be noted: 0.75 g GLCN/serving, 195° F. for 42 seconds, average of 12 panelists, scale −5 to +5 vs control. The source says:
Libby's White Grape Juicy Juice® was used as the basis for incorporation of samples. White Grape was chosen due to its light color, to help panelists observe any color change. According to the manufacturer, a 64 ounce bottle contains 8 servings of 8 ounces each.
For servings that included GLCN, the serving (8 ounces) had 0.75 g GLCN added, which reflects a typical amount of GLCN delivered in dietary supplement products. 16-ounce portions of juice were used. To the appropriate batches, 1.5 g of GLCN (16 ounces is two servings, and 2 servings×0.75 g/serving=1.5 g) was added. After preparing the samples, they were heated to 195∓4° F. in a microwave, held at that temperature for 42 seconds to simulate heat pasteurization, then cooled as described in Example 1.
Samples were tested according to the methodology and instructions in Example 1.

In the case of `Cl.N[C@H]1C(O)O[C@H](CO)[C@@H](O)[C@@H]1O` (some centres unmarked) [Fungal GLCN], the Color is on record as −0.2, the Mouthfeel/texture is −0.3, the Odor is recorded as −0.3 and the Taste is given as −0.6.
In turn, `Cl.N[C@H]1C(O)O[C@H](CO)[C@@H](O)[C@@H]1O` (some centres unmarked) [Shellfish GLCN, reference compound] returned a Color of −0.4, a Mouthfeel/texture of −0.3, an Odor of −0.1 and a Taste of −1.1.
